± gives the uncertainty stated by the source. Many entries were measured with a wide error.
Assay: self-splicing fitness, log relative to wild type (ln ratio); higher = more splicing; Tetrahymena group I intron in knt gene, E. coli kanamycin selection, DiMSum; sequences stand for … in CUCUCU…GGAGGGAAAAGUUAUCAGGCAUGCACCUGGUAGCUAGUCUUUAAACCAAUAGAUUGCAUCGGUUUAAAAGGCAAGACCGUCAAAUUGCGGGAAAGGGGUCAACAGCCGUUCAGUACCAAGUCUCAGGGGAAACUUUGAGAUGGCCUUGCAAAGGGUAUGGUAAUAAGCUGACGGACAUGGUCCUAACCACGCAGCCAAGUCCUAAGUCAACAGAUCUUCUGUUGAUAUGGAUGCAGUUCACAGACUAAAUGUCGGUCGGGGAAGAUGUAUUCUUCUCAUAAGAUAUAGUCGGACCUCUCCUUAAUGGGAGCUAGCGGAUGAAGUGAUGCAACACUGGAGCCGCUGGGAACUAAUUUGUAUGCGAAAGUAUAUUGAUUAGUUUUGGAGUACUCGUGGUCG
In short: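 Library with all eight P1ex-region intron nucleotides randomised, intron inside the knt kanamycin-resistance gene on pET-22b(+), in E. coli BL21(DE3). Cells grew overnight at 37°C or 30°C on LB agar with or without 25 μg/mL kanamycin (plus 100 μg/mL carbenicillin, 50 μM IPTG, 0.2% rhamnose), in six replicate transformations. Pooled colonies were amplicon-sequenced on Illumina HiSeq 2500. DiMSum fitness is the error-weighted combination of wild-type-normalised replicate fold changes, kanamycin versus none.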

Sequence	self-splicing fitness (ln) (30 °C)	self-splicing fitness (ln) (37 °C)
UUGUAGCAAUAUUACGCUAC	-3.9 ± 1	-2.01 ± 0.5
GCCCAGCAAUAUUACGACAU	-1.515 ± 0.012	-0.82 ± 0.032
GUGGAGCAAUAUUACGGCAG	-2.38 ± 0.51	-0.726 ± 0.84
CUCUAGCAAUAUUACGUUAC	-3.53 ± 0.52	-3.08 ± 1.1
UUGCAGCAAUAUUACGUCCC	-4.37 ± 0.72	–
ACGUAGCAAUAUUACGUCAC	-4.24 ± 0.51	–
GGAGAGCAAUAUUACGAUAA	-3.8 ± 0.77	–
GUCAAGCAAUAUUACGCUAC	-4.48 ± 0.72	–
AACGAGCAAUAUUACGAAAC	-4.97 ± 0.71	–
CUUUAGCAAUAUUACGCCUC	-3.18 ± 0.74	–
UGUGAGCAAUAUUACGUCAC	–	-3.42 ± 1
GGCCAGCAAUAUUACGCUGC	-3.96 ± 1	–
CAUCAGCAAUAUUACGGAAC	-2.6 ± 0.19	-2.54 ± 0.36
CCGGAGCAAUAUUACGCUCU	–	-1.88 ± 1.2
GGGGAGCAAUAUUACGAAGA	-2.42 ± 1.2	-1.14 ± 0.81
CGUGAGCAAUAUUACGUUCA	-3.04 ± 0.54	-1.39 ± 0.9
ACAGAGCAAUAUUACGAUCA	–	0.0082 ± 0.66
UCGGAGCAAUAUUACGUUUU	–	-3.18 ± 0.53
UUGGAGCAAUAUUACGCUAA	-2.18 ± 0.85	-0.188 ± 0.52
CUCUAGCAAUAUUACGUUAA	–	-4.07 ± 0.72

Sequence	self-splicing fitness (ln) (30 °C)	self-splicing fitness (ln) (37 °C)
UCUUAGCAAUAUUACGUGUC	-3.39 ± 1	-3 ± 0.53
ACAUAGCAAUAUUACGGAGC	-3.38 ± 0.53	–
AUUGAGCAAUAUUACGCCCC	-1.97 ± 1.2	–
CCAGAGCAAUAUUACGCUGA	-2.55 ± 0.56	-2.39 ± 1.1
CGGGAGCAAUAUUACGCCGC	–	-2.05 ± 0.66
CGUAAGCAAUAUUACGGGCC	–	-0.464 ± 0.68
AAUGAGCAAUAUUACGCGUG	-2.11 ± 0.11	-0.949 ± 0.1
UAGUAGCAAUAUUACGGUAU	-2.55 ± 0.24	-2.39 ± 0.35
UUCGAGCAAUAUUACGCCUA	-1.67 ± 0.11	-1.39 ± 0.097
AAGGAGCAAUAUUACGCCAU	-3.54 ± 0.73	–
ACGGAGCAAUAUUACGCUGU	-4.79 ± 0.71	–
GGGGAGCAAUAUUACGUCGG	-5.44 ± 1	–
GGAUAGCAAUAUUACGCUAA	-2.07 ± 0.16	-1.03 ± 0.22
CCGGAGCAAUAUUACGAUUC	-1.32 ± 0.82	–
UGAGAGCAAUAUUACGAUGU	–	-3.17 ± 0.73
UAGCAGCAAUAUUACGACAC	-3.35 ± 0.62	–
GCGCAGCAAUAUUACGUAGU	-0.438 ± 0.06	0.18 ± 0.076
UUGGAGCAAUAUUACGCCAU	-2.36 ± 1.2	0.855 ± 0.84
GGUCAGCAAUAUUACGUGGC	-4.71 ± 0.72	-3.49 ± 0.52
UGCGAGCAAUAUUACGCUCA	-3.17 ± 1	–

Sequence	self-splicing fitness (ln) (30 °C)	self-splicing fitness (ln) (37 °C)
CAGGAGCAAUAUUACGAGUU	–	-2.75 ± 0.62
GUGGAGCAAUAUUACGGCGC	-1.42 ± 0.27	-0.0496 ± 0.26
GGGGAGCAAUAUUACGAUAA	-2.8 ± 0.58	-2.41 ± 0.56
AGCAAGCAAUAUUACGGCUC	-4.6 ± 0.27	-3.41 ± 0.4
CUUCAGCAAUAUUACGAGUA	-1.21 ± 0.4	-3.37 ± 0.73
CCGAAGCAAUAUUACGUCCU	-3.34 ± 0.74	-1.89 ± 0.28
GGUAAGCAAUAUUACGCUCC	-3.63 ± 0.73	–
CAGGAGCAAUAUUACGAGAC	-3.31 ± 0.61	–
CUAGAGCAAUAUUACGAGUC	–	-3 ± 1.1
UCUUAGCAAUAUUACGUUGC	–	-3 ± 0.52
AUACAGCAAUAUUACGUAGA	-2.11 ± 0.085	-0.327 ± 0.076
AUUUAGCAAUAUUACGCCAG	–	-2.04 ± 0.65
ACUGAGCAAUAUUACGAGCC	–	-2.32 ± 0.64
UCGGAGCAAUAUUACGCCCU	–	-2.16 ± 0.57
GGGAAGCAAUAUUACGUUGC	–	-3.22 ± 0.52
CAUAAGCAAUAUUACGCCGA	-3.42 ± 0.77	–
UUUCAGCAAUAUUACGAUCC	-3.32 ± 0.65	–
GACGAGCAAUAUUACGCCCC	-2.42 ± 1.2	-1.79 ± 0.82
UUCAAGCAAUAUUACGGAAG	-3.97 ± 0.59	-2.75 ± 0.62

3 entries from above in another layout:
GUGGAGCAAUAUUACGGCGC
  self-splicing fitness (ln) (30 °C) = -1.42 ± 0.27
  self-splicing fitness (ln) (37 °C) = -0.0496 ± 0.26
AUUUAGCAAUAUUACGCCAG
  self-splicing fitness (ln) (37 °C) = -2.04 ± 0.65
UCGGAGCAAUAUUACGCCCU
  self-splicing fitness (ln) (37 °C) = -2.16 ± 0.57
